According to ChEMBL document CHEMBL1158194, “Phytogrowth-inhibitory compounds from Malmea depressa” (J Nat Prod, 1996):
Values after ≈ are worked out from the molar mass of the structure shown.

Test system: Candida albicans
Assay: Antifungal activity against Candida albicans by agar dilution method
Assay type: functional

MIC: 3 µg/mL (≈ 3.25 µM)
SMILES: C[C@@H]1[C@H](O)[C@@H](C)/C=C/C=C/C=C/C=C/C=C/C=C/C=C/[C@H](O[C@@H]2O[C@H](C)[C@@H](O)[C@H](N)[C@@H]2O)C[C@@H]2O[C@](O)(C[C@@H](O)C[C@@H](O)[C@H](O)CC[C@@H](O)C[C@@H](O)CC(=O)O[C@H]1C)C[C@H](O)[C@H]2C(=O)O [AMPHOTERICIN B]
